Values quoted from earlier work as cited in patent US20090156629A1, “INDENOISOQUINOLINE-RELEASABLE POLYMER CONJUGATES” (Enzon Pharmaceuticals, Inc., priority 2006, published 2009).
At least one structure is not confirmed: it was looked up by name or label, or the drawing left a doubt.

Tested on: standard panel of 12 tumor cell lines (NCI-H23, NCI-H522, MDA-MB-231, MDA-MB-435, SW-620, COLO 205, LOX, UACC-62, OVCAR-3, OVCAR-5, U251 and SF-295)
Conditions: historic data for comparison; cited from earlier work

Cn1nnc2c(C(N)=O)ncn2c1=O [Temozolomide]
Cell Death: Yes
